Experimental data reported in the supplement of paper PMC3334620.
Over roughly 33,000 sequences, “E-score (-0.5 to 0.5)” has its median near -0.0034; the highest 2% begin near 0.25. The list shows a part of the results.

Each sequence was assayed against T1, Yap3 (UniProt P38749) (assay: PBM E-score (8-mer binding enrichment) (E-score (-0.5 to 0.5)); higher = stronger / more preferred TF binding). Conditions: protein concentration: 100 nM; construct: GST-full length.
T1 sequence: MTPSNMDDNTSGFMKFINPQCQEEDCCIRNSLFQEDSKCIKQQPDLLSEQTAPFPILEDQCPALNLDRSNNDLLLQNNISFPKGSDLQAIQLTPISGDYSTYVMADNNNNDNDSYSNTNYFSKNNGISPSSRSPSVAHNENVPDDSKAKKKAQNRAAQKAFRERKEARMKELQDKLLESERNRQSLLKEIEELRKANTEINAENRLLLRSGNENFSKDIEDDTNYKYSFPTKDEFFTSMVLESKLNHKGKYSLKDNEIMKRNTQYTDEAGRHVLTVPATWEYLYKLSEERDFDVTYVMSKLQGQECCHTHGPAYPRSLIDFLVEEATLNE
How it was run: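 Full-length yeast transcription factors or their DNA-binding domains, GST-tagged and expressed with PURExpress, were applied at about 100-200 nM to universal all-10-mer Agilent arrays. These arrays had been made double-stranded by primer extension on fresh or once-stripped slides. Detection used fluorescent anti-GST, normalisation used masliner, and E-scores for ungapped eight-base words pooled with reverse complements came from the Universal PBM Analysis Suite.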

| Sequence | PBM E-score |
| --- | --- |
| AAGATTAG | 0.13 |
| GCCCTGAA | -0.0295 |
| TGAACTCA | -0.0419 |
| CCTAAAGC | -0.065 |
| AATCGCTA | -0.00025 |
| GGGTAGAA | 0.0334 |
| ATGAAATA | 0.288 |
| ACCCAACG | 0.134 |
| ATCCATAC | 0.179 |
| GGGAGTAC | -0.129 |
| CACGGCCC | -0.14 |
| CTTGGGAA | 0.0327 |
| CTAGTAGA | 0.0227 |
| AGCGCCCG | -0.176 |
| ACACCGTC | -0.138 |
| CAGTTGAC | 0.0875 |
| CCGCGCCA | -0.0462 |
| GCGTTGAA | 0.0801 |
| AATAGAAC | 0.16 |
| GTGGTCTA | -0.118 |
| GCCTTAGC | -0.145 |
| GATGTCCC | -0.134 |
| ATTTTCGA | 0.0465 |
| ACGATGCT | -0.0997 |
| AACTAGAA | 0.0548 |

| Sequence | PBM E-score |
| --- | --- |
| GTCAGGAC | -0.137 |
| CCTAACCC | -0.369 |
| CAAATCCG | 0.0064 |
| CAATGGTC | 0.127 |
| AAAGGTTC | -0.114 |
| TCAGTGCA | 0.0208 |
| GAACACAC | -0.0245 |
| AACCGGGA | -0.124 |
| CAGCAGGA | -0.101 |
| AAGGGAAG | -0.0577 |
| AGAATACG | 0.0873 |
| CTTGGTCC | 0.0374 |
| CACAACAG | -0.185 |
| ATAATGGC | 0.0359 |
| GTCGAAAA | 0.12 |
| CAGTCCCA | -0.204 |
| AATGCTCC | -0.0867 |
| AGCCTGGG | -0.287 |
| CAACCTAG | -0.107 |
| CTATACGC | 0.066 |
| CTGCTTCC | -0.138 |
| AGAAGTTC | -0.0511 |
| TAAAACTA | 0.151 |
| AATTAACA | 0.21 |
| TGGCGACA | 0.022 |

| Sequence | PBM E-score |
| --- | --- |
| ATCCGGGG | -0.0179 |
| AAGGTGTA | 0.0912 |
| CACTGCCA | 0.0521 |
| AACCCAGT | -0.0655 |
| GGGGGACC | -0.358 |
| CGATCTAA | 0.166 |
| AAAGCATT | 0.07 |
| CCATGCAA | 0.0692 |
| ACTGGCTG | -0.137 |
| GCGACTAC | -0.0411 |
| ACAACTCC | 0.146 |
| AGAATGAT | 0.209 |
| AAATCCAG | 0.249 |
| GTTCGTAA | 0.192 |
| GTTGTCCA | 0.00253 |
| CAATAGTA | 0.165 |
| AAGTACTC | 0.124 |
| AGCTGTGA | 0.0179 |
| CTTTAGTA | 0.0328 |
| CTCACATA | 0.0695 |
| TAGTGGAA | -0.0603 |
| TCGGTGCA | 0.00506 |
| CATGCATA | 0.112 |
| TGAAGGCA | -0.0822 |
| GCTTAACA | 0.0767 |

| Sequence | PBM E-score |
| --- | --- |
| ATCGAGCC | -0.178 |
| CGGCCCCA | -0.315 |
| GCGCCGGA | -0.178 |
| CCGGCAGA | -0.103 |
| CGGCGATC | -0.086 |
| GACCAGGC | -0.101 |
| ACGCTTAT | -0.04 |
| AAGGTCAA | -0.0138 |
| AACTCCAC | 0.0221 |
| GCAGAGCA | -0.267 |
| CTTGCGAC | -0.235 |
| ATAGGGTA | 0.0624 |
| GAGTCCTA | -0.192 |
| CTAGGATC | -0.0812 |
| ATTTGGAA | 0.0794 |
| TAATTCCA | 0.112 |
| GTGCAGAA | -0.0406 |
| AGATTAGC | 0.0497 |
| AGAGACAG | -0.0352 |
| TCCCCGAA | -0.217 |
| GGTCCTAA | -0.0735 |
| GGGAAGTA | -0.00126 |
| CGCCTAGA | -0.0286 |
| CATAGGCA | -0.0267 |
| ATGGGCCG | -0.177 |

| Sequence | PBM E-score |
| --- | --- |
| TTAATTAA | 0.0675 |
| GTCACTTA | 0.227 |
| GACGCATC | 0.101 |
| CCGCTGTA | 0.117 |
| CGCCCACG | -0.166 |
| CAATCGCA | 0.11 |
| ACGACTCA | 0.0349 |
| CCTTAGGC | -0.219 |
| AGTGTGCG | -0.0621 |
| AGTATCTA | 0.145 |
| ACCCTGAC | -0.0668 |
| ATTCGTCA | 0.124 |
| GGATCTGA | -0.09 |
| CAATGGGA | -0.0493 |
| GTTATTGA | 0.117 |
| ATGGTATC | 0.175 |
| ATGGTGTC | 0.0603 |
| ACGATTCC | 0.0605 |
| AAATATGC | 0.00442 |
| CCGTATTA | 0.165 |
| GAATGGAC | -0.0511 |
| TAGGTATA | 0.176 |
| GGTGGCTA | -0.0493 |
| TCCGCCCA | -0.11 |
| CCAACCGC | 0.125 |

Given in CSV form: part of the list above.
Sequence,PBM E-score
CGCCCACG,-0.166
ACGACTCA,0.0349
CCTTAGGC,-0.219
CAATGGGA,-0.0493
GGTGGCTA,-0.0493

The listing continues:

| Sequence | PBM E-score |
| --- | --- |
| AAATCCCA | 0.0952 |
| CCGGGTCC | -0.296 |
| TAATACAA | 0.279 |
| GATTATTA | 0.198 |
| AATTTAGA | 0.0678 |
| AAGATTAT | 0.176 |
| TCCCTTAA | -0.0761 |
| TTCTACAA | 0.0955 |
| GTTGCAGA | -0.0248 |
| CTCGTTCA | 0.0386 |
| ATAAGCCG | 0.129 |
| CTTAAATC | 0.151 |
| TCAAGTAA | 0.124 |
| GCGTTCAA | -0.137 |
| ACCAGACT | 0.016 |
| ACAATTAT | 0.248 |
| ATTTGTGG | 0.114 |
| ACGAAGTG | -0.0423 |
| ATCCCAGG | -0.174 |
| CCAGTTAC | -0.145 |
| TGGCAAAA | 0.104 |
| CCTAAAAA | 0.031 |
| ACCGCACG | -0.124 |
| ACTCGCAC | -0.0984 |
| ATATAGTG | 0.223 |

A second format for some results above:
Sequence,PBM E-score
ATGGTGTC,0.0603
ACGATTCC,0.0605
AAATATGC,0.00442
CCGTATTA,0.165
GAATGGAC,-0.0511
TAGGTATA,0.176
GGTGGCTA,-0.0493
TCCGCCCA,-0.11
CCAACCGC,0.125
AAATCCCA,0.0952
CCGGGTCC,-0.296
TAATACAA,0.279
GATTATTA,0.198
AATTTAGA,0.0678
AAGATTAT,0.176
TCCCTTAA,-0.0761
TTCTACAA,0.0955
GTTGCAGA,-0.0248
CTCGTTCA,0.0386
ATAAGCCG,0.129
CTTAAATC,0.151
TCAAGTAA,0.124
GCGTTCAA,-0.137
ACCAGACT,0.016
ACAATTAT,0.248
ATTTGTGG,0.114
ACGAAGTG,-0.0423
ATCCCAGG,-0.174
CCAGTTAC,-0.145
TGGCAAAA,0.104
CCTAAAAA,0.031
ACCGCACG,-0.124

The list continues:

| Sequence | PBM E-score |
| --- | --- |
| AGTCCGTA | -0.00747 |
| GAAGAGCC | -0.0754 |
| CCCCTATC | -0.207 |
| AGGTCATC | 0.0147 |
| GCCCCAAC | 0.0983 |
| GTTCACTA | 0.0227 |
| CAATTGCG | -0.0461 |
| CCCGTCGG | -0.171 |
| AATGTTCC | 0.0225 |
| AAGAGGTC | -0.0859 |
| GCCGTTAA | 0.0915 |
| ACAGCCTA | 0.193 |
| ATCAACTG | 0.0953 |
| CAGGAGAC | -0.0362 |
| GCATCCTA | -0.018 |
| ACATAGCG | -0.091 |
| CTTTGCAC | 0.0895 |
| AAACGATG | 0.0224 |
| TAGCTGCA | -0.236 |
| ATATGGGC | 0.097 |
| ACAACGGT | -0.0271 |
| ACACGGTA | 0.0254 |
